From paper PMC6233205 come the findings set out here.

The chains behind the UniProt entries cited, without tags or fusion partners.
UniProt Q9JMA1: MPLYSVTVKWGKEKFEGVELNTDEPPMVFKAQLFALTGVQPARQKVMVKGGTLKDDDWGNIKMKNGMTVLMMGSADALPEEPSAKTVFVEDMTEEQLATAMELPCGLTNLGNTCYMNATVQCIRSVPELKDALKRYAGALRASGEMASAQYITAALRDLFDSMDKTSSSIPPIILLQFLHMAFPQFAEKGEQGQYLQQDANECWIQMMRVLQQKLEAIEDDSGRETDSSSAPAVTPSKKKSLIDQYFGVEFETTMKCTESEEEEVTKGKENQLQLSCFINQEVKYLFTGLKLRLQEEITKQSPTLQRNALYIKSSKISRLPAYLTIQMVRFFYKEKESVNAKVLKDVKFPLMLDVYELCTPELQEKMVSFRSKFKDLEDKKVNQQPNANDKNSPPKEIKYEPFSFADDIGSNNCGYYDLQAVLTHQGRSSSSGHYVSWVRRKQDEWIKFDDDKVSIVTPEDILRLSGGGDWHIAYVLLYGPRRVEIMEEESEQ
UniProt P19096: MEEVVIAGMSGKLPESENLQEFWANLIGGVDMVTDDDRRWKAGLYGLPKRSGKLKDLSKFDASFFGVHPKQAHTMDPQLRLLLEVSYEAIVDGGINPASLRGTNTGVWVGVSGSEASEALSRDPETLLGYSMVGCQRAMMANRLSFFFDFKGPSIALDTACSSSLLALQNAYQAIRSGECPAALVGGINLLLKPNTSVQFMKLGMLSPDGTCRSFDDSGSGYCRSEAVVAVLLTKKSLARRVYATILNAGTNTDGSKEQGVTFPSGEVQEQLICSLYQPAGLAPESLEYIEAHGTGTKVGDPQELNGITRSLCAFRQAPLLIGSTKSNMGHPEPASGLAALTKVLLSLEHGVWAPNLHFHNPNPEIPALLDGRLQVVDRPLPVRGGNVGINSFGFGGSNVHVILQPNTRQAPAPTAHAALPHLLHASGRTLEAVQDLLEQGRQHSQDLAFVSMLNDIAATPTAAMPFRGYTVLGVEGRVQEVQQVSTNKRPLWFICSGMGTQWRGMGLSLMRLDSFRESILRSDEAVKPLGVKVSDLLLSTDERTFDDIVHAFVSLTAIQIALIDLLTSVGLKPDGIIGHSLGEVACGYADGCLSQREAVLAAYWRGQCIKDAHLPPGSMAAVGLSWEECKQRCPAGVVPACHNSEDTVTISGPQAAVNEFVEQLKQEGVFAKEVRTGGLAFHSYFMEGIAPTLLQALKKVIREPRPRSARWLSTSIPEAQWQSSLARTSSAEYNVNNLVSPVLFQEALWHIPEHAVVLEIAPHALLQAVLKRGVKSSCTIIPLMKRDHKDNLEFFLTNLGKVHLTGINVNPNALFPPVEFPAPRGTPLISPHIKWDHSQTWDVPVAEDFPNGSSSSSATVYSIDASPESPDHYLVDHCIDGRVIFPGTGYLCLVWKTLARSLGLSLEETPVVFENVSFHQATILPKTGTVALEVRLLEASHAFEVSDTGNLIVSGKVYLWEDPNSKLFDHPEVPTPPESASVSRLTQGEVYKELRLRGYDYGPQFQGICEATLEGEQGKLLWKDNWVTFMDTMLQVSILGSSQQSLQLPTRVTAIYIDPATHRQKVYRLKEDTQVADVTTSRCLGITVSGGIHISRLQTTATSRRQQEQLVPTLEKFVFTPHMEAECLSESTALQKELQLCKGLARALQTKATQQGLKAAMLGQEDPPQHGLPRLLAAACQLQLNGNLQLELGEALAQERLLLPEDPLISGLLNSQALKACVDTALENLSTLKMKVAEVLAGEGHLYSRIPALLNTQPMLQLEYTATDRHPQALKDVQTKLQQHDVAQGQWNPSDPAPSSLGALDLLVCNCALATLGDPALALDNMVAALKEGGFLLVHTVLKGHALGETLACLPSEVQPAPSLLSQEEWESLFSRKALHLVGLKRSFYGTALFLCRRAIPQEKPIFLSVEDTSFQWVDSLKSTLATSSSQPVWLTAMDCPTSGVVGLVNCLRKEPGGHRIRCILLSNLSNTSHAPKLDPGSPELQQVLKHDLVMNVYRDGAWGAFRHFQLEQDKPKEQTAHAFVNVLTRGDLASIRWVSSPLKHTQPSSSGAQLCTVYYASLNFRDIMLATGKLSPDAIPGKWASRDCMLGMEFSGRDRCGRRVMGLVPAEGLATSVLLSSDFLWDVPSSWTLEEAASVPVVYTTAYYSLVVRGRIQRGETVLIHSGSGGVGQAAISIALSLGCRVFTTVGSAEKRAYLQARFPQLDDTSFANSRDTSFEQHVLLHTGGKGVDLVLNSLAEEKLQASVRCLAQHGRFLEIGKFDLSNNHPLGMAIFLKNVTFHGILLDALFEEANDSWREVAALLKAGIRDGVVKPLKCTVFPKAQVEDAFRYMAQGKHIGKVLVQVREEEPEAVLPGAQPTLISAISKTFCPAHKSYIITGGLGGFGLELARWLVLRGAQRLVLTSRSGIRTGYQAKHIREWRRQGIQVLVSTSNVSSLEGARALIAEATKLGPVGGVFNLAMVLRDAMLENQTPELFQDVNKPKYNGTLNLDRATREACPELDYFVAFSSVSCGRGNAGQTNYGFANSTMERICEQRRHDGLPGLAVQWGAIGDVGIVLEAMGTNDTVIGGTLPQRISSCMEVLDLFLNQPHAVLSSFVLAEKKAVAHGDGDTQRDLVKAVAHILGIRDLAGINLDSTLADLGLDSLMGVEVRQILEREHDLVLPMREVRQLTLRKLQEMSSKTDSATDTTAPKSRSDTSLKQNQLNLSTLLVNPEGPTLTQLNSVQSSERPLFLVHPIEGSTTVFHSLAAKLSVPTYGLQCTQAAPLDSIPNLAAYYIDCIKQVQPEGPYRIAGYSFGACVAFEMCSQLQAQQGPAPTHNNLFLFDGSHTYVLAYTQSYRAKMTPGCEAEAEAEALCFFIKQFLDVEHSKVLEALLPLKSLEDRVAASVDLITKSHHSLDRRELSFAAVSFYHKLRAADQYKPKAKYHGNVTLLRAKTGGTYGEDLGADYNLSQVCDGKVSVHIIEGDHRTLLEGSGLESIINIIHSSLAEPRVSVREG

These are yes or no findings as the source states them, for the method shown. In cells and extracts the contact can be indirect. Some entries that bind do so weakly or less than the wild type.

This test has as its target USP14, endogenous in mouse primary hepatocytes (mouse (endogenous in mouse primary hepatocytes)) (UniProt Q9JMA1). Briefly: co-IP; lysate of mouse primary hepatocytes incubated with anti-USP14 antibody or normal rabbit IgG; immunocomplexes probed by western blot.

Consider “fatty acid synthase (FASN), endogenous in mouse primary hepatocytes (from UniProt P19096 1-2504) (enzyme)”, for which the binding entry is recorded as “binds”.
